The list shows only some results of the screen, not a fair sample: it gathers tests that were run many times, whatever their T/C, doses with no T/C, and many T/C values between a quarter and a half above the control. Further doses and runs are listed elsewhere. T/C is the treated group as % of the vehicle group. Some doses have a count of surviving animals in place of a T/C: the source files T/C as zero there, which appears to mark a toxic dose or a test without result, not a measured value. Some survivor counts are full or nearly so, which does not show that the dose was tolerated: survival well below the control is almost never listed, so the zero probably covers shortened survival too. Survivors were counted at the toxicity check, usually on the fifth day, unless a day is given; later deaths do not show. Schedules are NCI's codes, read here as Q, the interval in days (D) or hours (H), X, the number of doses. Some entries were tested several times; their values stand side by side, smallest first. Where survival is the endpoint, the PubChem record calls one and a half times the control and up active, and a quarter to a half above the control has no call in these data; cut-offs in other NCI protocols can differ. Some T/C values carry the count of animals alive at the toxicity check (mostly the fifth day); where none is given, no animal had died by that day.
Tested on: P388 leukemia ip, CD2F1 mice, survival T/C
Test: NCI In Vivo Anticancer Drug Screen. Data for tumor model P388 Leukemia (intraperitoneal) in CD2F1 (CDF1) mice
Details: T/C endpoint: median survival time, higher T/C = longer survival
[1] = dose: 16.0 mg/kg/injection, schedule: Q04DX003 (ip), vehicle: other

**Q.** `CCN(CC)CCCNc1nccc2c(C)c3[nH]c4ccncc4c3cc12` was tested. Which T/C (dose: 1.0 mg/kg/injection, schedule: Q04DX003 (ip), vehicle: other, evaluated on day 30) did it give?
**A.** Its T/C is 147, 153, 174 % of control.

**Q.** What about the T/C (dose: 1.0 mg/kg/injection, schedule: Q04DX003 (ip), vehicle: other, evaluated on day 35) of the same molecule?
**A.** The T/C was 150 % of control.

**Q.** What about the T/C (dose: 2.0 mg/kg/injection, schedule: Q04DX003 (ip), vehicle: other, evaluated on day 30) of the same molecule?
**A.** Its T/C is 163, 165, 190 % of control.

**Q.** And the T/C (dose: 2.0 mg/kg/injection, schedule: Q04DX003 (ip), vehicle: other, evaluated on day 35)?
**A.** The T/C was 154 % of control.

**Q.** What about the T/C (dose: 4.0 mg/kg/injection, schedule: Q04DX003 (ip), vehicle: other, evaluated on day 30) of the same molecule?
**A.** Its T/C is 186 and 187 % of control.

**Q.** And the T/C (dose: 4.0 mg/kg/injection, schedule: Q04DX003 (ip), vehicle: other, evaluated on day 35)?
**A.** The T/C was 150 % of control.

**Q.** And the survivor count (dose: 4.0 mg/kg/injection, schedule: Q04DX003 (ip), vehicle: other)?
**A.** The survivor count was 6 of 6.

**Q.** What about the T/C (dose: 8.0 mg/kg/injection, schedule: Q04DX003 (ip), vehicle: other, evaluated on day 30) of the same molecule?
**A.** Its T/C is 179 % of control.

**Q.** And the T/C (dose: 8.0 mg/kg/injection, schedule: Q04DX003 (ip), vehicle: other, evaluated on day 35)?
**A.** Its T/C is 178 % of control.

**Q.** And the survivor count (dose: 8.0 mg/kg/injection, schedule: Q04DX003 (ip), vehicle: other)?
**A.** Its survivor count is 2 of 6 and 6 of 6.

**Q.** And the T/C (dose: 8.0 mg/kg/injection, schedule: Q04DX003 (iv), vehicle: other)?
**A.** The T/C was 146 % of control [5 of 6 alive].

**Q.** What about the T/C [1] of the same molecule?
**A.** The T/C was 196 % of control.

**Q.** What about the survivor count [1] of the same molecule?
**A.** The survivor count was 0 of 6 and 3 of 6.

**Q.** And the survivor count (dose: 16.0 mg/kg/injection, schedule: Q04DX003 (iv), vehicle: other)?
**A.** The survivor count was 0 of 6.

**Q.** And the survivor count (dose: 25.0 mg/kg/injection, schedule: Q04DX002 (ip), vehicle: other)?
**A.** Its survivor count is 0 of 8 and 5 of 8.

**Q.** And the survivor count (dose: 30.0 mg/kg/injection, schedule: Q04DX002 (ip), vehicle: other)?
**A.** The survivor count was 2 of 8.

**Q.** What does the source list for `NCC12CC3CC(CC(C3)C1)C2`?
**A.** survivor count (dose: 100.0 mg/kg/injection, schedule: Q01DX009 (ip), vehicle: saline with Tween-80): 3 of 6; survivor count (dose: 200.0 mg/kg/injection, schedule: Q01DX009 (ip), vehicle: saline with Tween-80): 0 of 6

**Q.** Which results are given for `NC(Cc1ccc(N(CCCl)CCCl)cc1)C(=O)O` (stereo not given)?
**A.** survivor count (dose: 12.5 mg/kg/injection, schedule: Q01DX009 (ip), vehicle: Klucel (hydroxypropylcellulose) (HPC)): 6 of 6; survivor count (dose: 25.0 mg/kg/injection, schedule: Q01DX009 (ip), vehicle: Klucel (hydroxypropylcellulose) (HPC)): 1 of 6; survivor count (dose: 50.0 mg/kg/injection, schedule: Q01DX009 (ip), vehicle: Klucel (hydroxypropylcellulose) (HPC)): 2 of 6; survivor count (dose: 100.0 mg/kg/injection, schedule: Q01DX009 (ip), vehicle: Klucel (hydroxypropylcellulose) (HPC)): 0 of 6; survivor count (dose: 200.0 mg/kg/injection, schedule: Q01DX009 (ip), vehicle: Klucel (hydroxypropylcellulose) (HPC)): 0 of 6

**Q.** `C#CCn1c(=O)c2cc3ccccc3nc2n(CC#C)c1=O` was tested. Which survivor count (dose: 200.0 mg/kg/injection, schedule: Q01DX005 (ip), vehicle: Klucel (hydroxypropylcellulose) (HPC)) did it give?
**A.** Its survivor count is 6 of 6.

**Q.** `C1=C(c2ccccc2)OC(c2ccccc2)=C[P+]1(c1ccccc1)c1ccccc1` was tested. Which T/C (dose: 0.78 mg/kg/injection, schedule: Q01DX005 (ip), vehicle: saline) did it give?
**A.** Its T/C is 128 % of control.

**Q.** And the T/C (dose: 1.56 mg/kg/injection, schedule: Q01DX005 (ip), vehicle: saline)?
**A.** Its T/C is 138 % of control.

**Q.** And the T/C (dose: 3.12 mg/kg/injection, schedule: Q01DX005 (ip), vehicle: saline)?
**A.** Its T/C is 130 % of control.

**Q.** And the survivor count (dose: 6.25 mg/kg/injection, schedule: Q01DX005 (ip), vehicle: saline)?
**A.** Its survivor count is 1 of 5.

**Q.** What about the survivor count (dose: 12.5 mg/kg/injection, schedule: Q01DX005 (ip), vehicle: saline with Tween-80) of the same molecule?
**A.** The survivor count was 4 of 5.

**Q.** What about the survivor count (dose: 25.0 mg/kg/injection, schedule: Q01DX005 (ip), vehicle: saline with Tween-80) of the same molecule?
**A.** The survivor count was 0 of 5.

**Q.** And the survivor count (dose: 50.0 mg/kg/injection, schedule: Q01DX005 (ip), vehicle: saline with Tween-80)?
**A.** Its survivor count is 0 of 5.

**Q.** For `Clc1ccc2nc(CI)c(CI)nc2c1`, which survivor count (dose: 200.0 mg/kg/injection, schedule: Q04DX003 (ip), vehicle: saline with Tween-80) is on record?
**A.** Its survivor count is 0 of 6.

**Q.** For `O=C(Cc1ccccc1)c1c[nH]c2c(O)ccc(O)c12`, which survivor count (dose: 400.0 mg/kg/injection, schedule: Q04DX002 (ip), vehicle: Klucel (hydroxypropylcellulose) (HPC)) is on record?
**A.** Its survivor count is 0 of 6.

**Q.** For `CCNC(=O)n1cccc(OC)c1=O`, which T/C (dose: 200.0 mg/kg/injection, schedule: Q01DX009 (ip), vehicle: saline) is on record?
**A.** Its T/C is 135 % of control.

**Q.** What about the survivor count (dose: 400.0 mg/kg/injection, schedule: Q01DX009 (ip), vehicle: saline) of the same molecule?
**A.** Its survivor count is 1 of 6.

From PubChem BioAssay AID330 (DTP/NCI, 2004)
